Measurements taken from article PMC5876348.
Results are given in words; binding and its absence hold for the method and conditions named. In cells and extracts the contact can be indirect. A yes stands for co-enrichment or nearness to the bait. Other partners may have been found.

Protein sequences, listed by entry. Tags and fused reporters are not part of them.
UniProt Q9Y294: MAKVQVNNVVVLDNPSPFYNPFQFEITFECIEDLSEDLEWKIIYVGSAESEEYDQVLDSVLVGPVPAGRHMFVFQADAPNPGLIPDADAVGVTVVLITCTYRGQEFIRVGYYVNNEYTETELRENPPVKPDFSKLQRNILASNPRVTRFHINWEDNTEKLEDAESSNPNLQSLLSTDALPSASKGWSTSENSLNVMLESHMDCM
UniProt Q5UIP0: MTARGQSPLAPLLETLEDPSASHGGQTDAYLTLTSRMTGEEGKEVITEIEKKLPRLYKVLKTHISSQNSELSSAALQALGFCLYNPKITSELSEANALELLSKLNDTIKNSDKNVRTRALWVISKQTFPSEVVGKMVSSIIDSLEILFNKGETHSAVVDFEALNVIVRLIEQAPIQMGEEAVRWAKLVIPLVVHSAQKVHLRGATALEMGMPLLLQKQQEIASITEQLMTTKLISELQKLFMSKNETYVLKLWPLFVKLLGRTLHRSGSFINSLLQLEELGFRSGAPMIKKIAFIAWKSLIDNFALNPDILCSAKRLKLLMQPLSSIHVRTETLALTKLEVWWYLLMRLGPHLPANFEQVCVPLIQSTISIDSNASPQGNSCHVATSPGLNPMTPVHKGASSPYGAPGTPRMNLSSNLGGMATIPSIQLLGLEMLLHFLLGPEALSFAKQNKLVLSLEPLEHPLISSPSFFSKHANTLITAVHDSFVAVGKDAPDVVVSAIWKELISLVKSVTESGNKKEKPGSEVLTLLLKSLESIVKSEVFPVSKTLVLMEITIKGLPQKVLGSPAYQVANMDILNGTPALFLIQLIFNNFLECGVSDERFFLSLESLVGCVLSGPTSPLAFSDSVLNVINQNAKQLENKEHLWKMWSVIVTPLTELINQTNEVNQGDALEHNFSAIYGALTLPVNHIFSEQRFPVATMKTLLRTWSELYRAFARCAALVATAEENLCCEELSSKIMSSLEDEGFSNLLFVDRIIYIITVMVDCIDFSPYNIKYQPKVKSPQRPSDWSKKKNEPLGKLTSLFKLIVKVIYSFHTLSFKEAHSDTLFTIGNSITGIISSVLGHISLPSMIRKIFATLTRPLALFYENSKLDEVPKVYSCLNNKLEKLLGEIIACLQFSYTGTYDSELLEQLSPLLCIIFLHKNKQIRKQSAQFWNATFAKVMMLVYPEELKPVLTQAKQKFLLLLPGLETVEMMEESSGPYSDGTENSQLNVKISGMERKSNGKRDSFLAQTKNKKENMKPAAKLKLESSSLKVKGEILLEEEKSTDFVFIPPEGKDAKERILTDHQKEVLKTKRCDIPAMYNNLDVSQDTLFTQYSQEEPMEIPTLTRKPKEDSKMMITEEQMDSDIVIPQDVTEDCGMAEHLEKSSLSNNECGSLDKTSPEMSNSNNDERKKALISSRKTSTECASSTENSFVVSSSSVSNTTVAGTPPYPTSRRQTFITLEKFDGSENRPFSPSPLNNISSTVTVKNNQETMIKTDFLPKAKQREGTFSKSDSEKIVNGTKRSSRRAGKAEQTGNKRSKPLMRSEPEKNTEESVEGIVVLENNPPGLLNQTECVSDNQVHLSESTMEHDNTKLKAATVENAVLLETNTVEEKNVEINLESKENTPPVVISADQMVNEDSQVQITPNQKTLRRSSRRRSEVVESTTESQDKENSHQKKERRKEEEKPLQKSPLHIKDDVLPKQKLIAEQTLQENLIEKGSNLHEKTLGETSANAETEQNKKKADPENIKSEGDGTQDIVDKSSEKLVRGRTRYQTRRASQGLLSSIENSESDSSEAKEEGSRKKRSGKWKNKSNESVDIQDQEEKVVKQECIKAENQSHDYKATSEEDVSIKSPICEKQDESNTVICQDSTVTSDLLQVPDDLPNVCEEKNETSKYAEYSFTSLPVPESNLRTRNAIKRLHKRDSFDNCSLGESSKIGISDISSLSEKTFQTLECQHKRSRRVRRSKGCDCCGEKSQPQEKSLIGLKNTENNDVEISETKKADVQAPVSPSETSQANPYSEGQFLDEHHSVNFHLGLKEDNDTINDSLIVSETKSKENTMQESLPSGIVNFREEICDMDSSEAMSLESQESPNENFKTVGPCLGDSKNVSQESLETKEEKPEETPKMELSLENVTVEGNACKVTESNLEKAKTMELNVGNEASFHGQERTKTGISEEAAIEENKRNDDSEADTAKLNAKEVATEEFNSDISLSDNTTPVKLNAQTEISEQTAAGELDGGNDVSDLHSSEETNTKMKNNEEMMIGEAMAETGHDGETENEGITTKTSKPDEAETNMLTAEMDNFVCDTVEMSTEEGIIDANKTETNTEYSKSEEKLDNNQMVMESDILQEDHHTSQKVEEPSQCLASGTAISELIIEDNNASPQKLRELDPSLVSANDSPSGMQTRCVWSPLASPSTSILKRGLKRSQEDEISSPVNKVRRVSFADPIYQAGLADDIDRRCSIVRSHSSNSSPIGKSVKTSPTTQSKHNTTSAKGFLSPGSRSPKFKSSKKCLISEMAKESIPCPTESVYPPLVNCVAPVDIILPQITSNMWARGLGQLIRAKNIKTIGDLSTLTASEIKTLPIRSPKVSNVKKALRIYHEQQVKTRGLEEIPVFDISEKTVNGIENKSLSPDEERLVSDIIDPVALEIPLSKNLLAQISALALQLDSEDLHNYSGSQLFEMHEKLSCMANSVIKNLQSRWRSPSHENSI
UniProt P06748: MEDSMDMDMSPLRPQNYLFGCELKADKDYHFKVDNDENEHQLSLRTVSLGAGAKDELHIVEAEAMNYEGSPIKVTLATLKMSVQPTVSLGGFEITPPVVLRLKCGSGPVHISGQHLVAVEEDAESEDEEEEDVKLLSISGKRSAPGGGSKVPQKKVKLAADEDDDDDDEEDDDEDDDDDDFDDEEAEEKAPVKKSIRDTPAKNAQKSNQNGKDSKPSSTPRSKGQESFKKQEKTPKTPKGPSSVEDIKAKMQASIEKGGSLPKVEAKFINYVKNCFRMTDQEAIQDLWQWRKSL
UniProt Q9UER7: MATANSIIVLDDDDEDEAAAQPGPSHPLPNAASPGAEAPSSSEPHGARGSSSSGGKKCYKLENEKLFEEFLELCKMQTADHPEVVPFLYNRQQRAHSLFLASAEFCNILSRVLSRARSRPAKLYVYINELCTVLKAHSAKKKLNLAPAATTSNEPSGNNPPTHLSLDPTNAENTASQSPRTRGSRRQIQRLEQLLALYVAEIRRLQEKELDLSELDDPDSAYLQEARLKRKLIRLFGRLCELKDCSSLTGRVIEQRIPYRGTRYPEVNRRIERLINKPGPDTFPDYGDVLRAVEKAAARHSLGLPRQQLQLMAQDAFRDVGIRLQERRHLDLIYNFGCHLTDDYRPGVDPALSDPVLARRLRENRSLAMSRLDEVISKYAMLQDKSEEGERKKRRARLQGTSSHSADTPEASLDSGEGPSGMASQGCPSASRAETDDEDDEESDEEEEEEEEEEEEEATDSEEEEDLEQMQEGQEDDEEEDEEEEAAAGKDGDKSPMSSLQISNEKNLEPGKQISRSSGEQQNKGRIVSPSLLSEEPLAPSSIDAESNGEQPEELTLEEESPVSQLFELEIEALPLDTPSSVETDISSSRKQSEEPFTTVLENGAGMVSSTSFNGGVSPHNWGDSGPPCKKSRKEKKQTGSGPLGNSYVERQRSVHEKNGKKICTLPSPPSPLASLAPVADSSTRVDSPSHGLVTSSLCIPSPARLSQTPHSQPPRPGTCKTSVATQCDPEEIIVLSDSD

B1: Codanin (protein, UniProt Q8IWY9 1-1227)
chain: MAAVLESLLREEVSVAAVVRWIARSTQGSEDNAGEAAALSSLRALRKEFVPFLLNFLREQSSRVLPQGPPTPAKTPGASAALPGRPGGPPRGSRGARSQLFPPTEAQSTAAEAPLARRGGRRRGPGPARERGGRGLEEGVSGESLPGAGGRRLRGSGSPSRPSLTLSDPPNLSNLEEFPPVGSVPPGPTGTKPSRRINPTPVSEERSLSKPKTCFTSPPISCVPSSQPSALDTSPWGLGLPPGCRSLQEEREMLRKERSKQLQQSPTPTCPTPELGSPLPSRTGSLTDEPADPARVSSRQRLELVALVYSSCIAENLVPNLFLELFFVFQLLTARRMVTAKDSDPELSPAVLDSLESPLFQSIHDCVFFAVQVLECHFQVLSNLDKGTLKLLAENERLLCFSPALQGRLRAAYEGSVAKVSLVMPPSTQAVSFQPETDNRANFSSDRAFHTFKKQRDVFYEVLREWEDHHEEPGWDFEKGLGSRIRAMMGQLSAACSHSHFVRLFQKQLLQMCQSPGGAGGTVLGEAPDVLSMLGADKLGRLWRLQERLMAPQSSGGPCPPPTFPGCQGFFRDFILSASSFQFNQHLMDSLSLKIQELNGLALPQHEPNDEDGESDVDWQGERKQFAVVLLSLRLLAKFLGFVAFLPYRGPEPPPTGELQDSILALRSQVPPVLDVRTLLQRGLQARRAVLTVPWLVEFLSFADHVVPLLEYYRDIFTLLLRLHRSLVLSQESEGKMCFLNKLLLLAVLGWLFQIPTVPEDLFFLEEGPSYAFEVDTVAPEHGLDNAPVVDQQLLYTCCPYIGELRKLLASWVSGSSGRSGGFMRKITPTTTTSLGAQPSQTSQGLQAQLAQAFFHNQPPSLRRTVEFVAERIGSNCVKHIKATLVADLVRQAESLLQEQLVTQGEEGGDPAQLLEILCSQLCPHGAQALALGREFCQRKSPGAVRALLPEETPAAVLSSAENIAVGLATEKACAWLSANITALIRREVKAAVSRTLRAQGPEPAARGERRGCSRACEHHAPLPSHLISEIKDVLSLAVGPRDPDEGVSPEHLEQLLGQLGQTLRCRQFLCPPAEQHLAKCSVELASLLVADQIPILGPPAQYRLERGQARRLLHMLLSLWKEDFQGPVPLQLLLSPRNVGLLADTRPREWDLLLFLLRELVEKGLMGRMEIEACLGSLHQAQWPGDFAEELATLSNLFLAEPHLPEPQLRACELVQPNRGTVLAQS
B2: USP52 (endogenous) (enzyme, UniProt Q504Q3 1-1202)
chain: MNFEGLDPGLAEYAPAMHSALDPVLDAHLNPSLLQNVELDPEGVALEALPVQESVHIMEGVYSELHSVVAEVGVPVSVSHFDLHEEMLWVGSHGGHATSFFGPALERYSSFQVNGSDDIRQIQSLENGILFLTKNNLKYMARGGLIIFDYLLDENEDMHSLLLTDSSTLLVGGLQNHIIEIDLNTVQETQKYAVETPGVTIMRQTNRFFFCGHTSGKVSLRDLRTFKVEHEFDAFSGSLSDFDVHGNLLAACGFSSRLTGLACDRFLKVYDLRMMRAITPLQVHVDPAFLRFIPTYTSRLAIISQSGQCQFCEPTGLANPADIFHVNPVGPLLMTFDVSASKQALAFGDSEGCVHLWTDSPEPSFNPYSRETEFALPCLVDSLPPLDWSQDLLPLSLIPVPLTTDTLLSDWPAANSAPAPRRAPPVDAEILRTMKKVGFIGYAPNPRTRLRNQIPYRLKESDSEFDSFSQVTESPVGREEEPHLHMVSKKYRKVTIKYSKLGLEDFDFKHYNKTLFAGLEPHIPNAYCNCMIQVLYFLEPVRCLIQNHLCQKEFCLACELGFLFHMLDLSRGDPCQGNNFLRAFRTIPEASALGLILADSDEASGKGNLARLIQRWNRFILTQLHQDMQELEIPQAYRGAGGSSFCSSGDSVIGQLFSCEMENCSLCRCGSETVRASSTLLFTLSYPDGSKSDKTGKNYDFAQVLKRSICLDQNTQAWCDTCEKYQPTIQTRNIRHLPDILVINCEVNSSKEADFWRMQAEVAFKMAVKKHGGEISKNKEFALADWKELGSPEGVLVCPSIEELKNVWLPFSIRMKMTKNKGLDVCNWTDGDEMQWGPARAEEEHGVYVYDLMATVVHILDSRTGGSLVAHIKVGETYHQRKEGVTHQQWYLFNDFLIEPIDKHEAVQFDMNWKVPAILYYVKRNLNSRYNLNIKNPIEASVLLAEASLARKQRKTHTTFIPLMLNEMPQIGDLVGLDAEFVTLNEEEAELRSDGTKSTIKPSQMSVARITCVRGQGPNEGIPFIDDYISTQEQVVDYLTQYSGIKPGDLDAKISSKHLTTLKSTYLKLRFLIDIGVKFVGHGLQKDFRVINLMVPKDQVLDTVYLFHMPRKRMISLRFLAWYFLDLKIQGETHDSIEDARTALQLYRKYLELSKNGTEPESFHKVLKGLYEKGRKMDWKVPEPEGQTSPKNAAVFSSVLAL

target: FLAG-ASF1A (doxycycline-inducible, stably integrated in MCF-7 cells) (UniProt Q9Y294); assay: affinity purification with mass spectrometry; whole-cell extracts of MCF-7 cells with Dox-inducible FLAG-ASF1A on an anti-FLAG M2 column; washed with cold PBS plus 0.2% Nonidet P-40; eluted with FLAG peptide; silver-stained bands analysed by LC-MS/MS

**Q.** Which binding does the source give for RIF1 (from UniProt Q5UIP0 1-2472) here?
**A.** The binding was “binds”.

**Q.** NPM (from UniProt P06748 1-294) was tested. Which binding did it give?
**A.** Its binding is “binds”.

**Q.** For DAXX (from UniProt Q9UER7 1-740), which binding is on record?
**A.** Its binding is “binds”.

**Q.** How did the binding turn out when B1 was run?
**A.** The binding was “binds”.

**Q.** B2 was tested. Which binding did it give?
**A.** Its binding is “binds”.
